# Measured values taken from the supplement of paper PMC12595434, “Development of retinoid nuclear receptor pathway antagonists through targeting aldehyde dehydrogenase 1A3” (iScience, 2025).
# By UniProt entry, the sequences of proteins in these tests, tags left out. Where a name states a change or a piece, a line headed by the entry shows the natural chain unless it says otherwise.
# UniProt Q9BV94: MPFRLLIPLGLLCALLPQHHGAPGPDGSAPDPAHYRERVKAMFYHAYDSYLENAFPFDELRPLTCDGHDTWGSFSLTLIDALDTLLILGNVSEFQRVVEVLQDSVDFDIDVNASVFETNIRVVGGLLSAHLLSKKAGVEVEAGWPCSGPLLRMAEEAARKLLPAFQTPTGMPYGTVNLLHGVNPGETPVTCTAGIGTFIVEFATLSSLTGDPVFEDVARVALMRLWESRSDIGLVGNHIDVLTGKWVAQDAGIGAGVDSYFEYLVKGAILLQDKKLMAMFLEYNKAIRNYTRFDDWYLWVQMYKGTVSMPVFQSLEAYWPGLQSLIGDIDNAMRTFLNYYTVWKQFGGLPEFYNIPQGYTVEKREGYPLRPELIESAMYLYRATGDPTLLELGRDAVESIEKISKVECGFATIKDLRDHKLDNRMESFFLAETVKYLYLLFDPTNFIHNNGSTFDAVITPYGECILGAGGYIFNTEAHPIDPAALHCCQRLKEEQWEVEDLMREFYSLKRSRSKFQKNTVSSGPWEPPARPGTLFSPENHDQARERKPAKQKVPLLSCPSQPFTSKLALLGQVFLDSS
# UniProt Q9BW60: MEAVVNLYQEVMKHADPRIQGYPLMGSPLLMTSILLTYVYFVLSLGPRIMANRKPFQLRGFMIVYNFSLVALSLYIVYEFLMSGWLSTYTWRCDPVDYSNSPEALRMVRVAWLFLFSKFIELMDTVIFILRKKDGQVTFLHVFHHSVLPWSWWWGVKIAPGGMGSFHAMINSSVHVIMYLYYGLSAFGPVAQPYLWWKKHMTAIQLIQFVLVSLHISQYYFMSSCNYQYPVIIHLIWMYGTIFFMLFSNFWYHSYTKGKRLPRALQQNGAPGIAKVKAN
# UniProt Q99961: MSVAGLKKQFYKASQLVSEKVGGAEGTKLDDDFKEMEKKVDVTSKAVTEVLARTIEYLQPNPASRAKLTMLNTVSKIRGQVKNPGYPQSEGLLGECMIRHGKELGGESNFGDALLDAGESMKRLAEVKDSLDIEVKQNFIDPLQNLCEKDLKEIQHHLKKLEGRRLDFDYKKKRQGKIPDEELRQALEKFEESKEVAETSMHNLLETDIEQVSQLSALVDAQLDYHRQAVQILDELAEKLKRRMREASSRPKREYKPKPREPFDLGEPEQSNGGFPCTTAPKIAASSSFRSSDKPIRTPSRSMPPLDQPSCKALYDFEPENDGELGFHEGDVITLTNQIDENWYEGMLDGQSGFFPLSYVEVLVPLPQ
# UniProt Q9BRX8: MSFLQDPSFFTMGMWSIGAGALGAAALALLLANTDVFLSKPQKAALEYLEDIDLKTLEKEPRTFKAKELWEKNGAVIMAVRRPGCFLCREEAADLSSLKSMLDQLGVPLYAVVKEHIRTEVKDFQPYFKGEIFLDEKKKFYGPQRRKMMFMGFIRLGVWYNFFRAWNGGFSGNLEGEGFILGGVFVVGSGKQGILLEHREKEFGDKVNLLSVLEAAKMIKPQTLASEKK
# UniProt Q9BQE5: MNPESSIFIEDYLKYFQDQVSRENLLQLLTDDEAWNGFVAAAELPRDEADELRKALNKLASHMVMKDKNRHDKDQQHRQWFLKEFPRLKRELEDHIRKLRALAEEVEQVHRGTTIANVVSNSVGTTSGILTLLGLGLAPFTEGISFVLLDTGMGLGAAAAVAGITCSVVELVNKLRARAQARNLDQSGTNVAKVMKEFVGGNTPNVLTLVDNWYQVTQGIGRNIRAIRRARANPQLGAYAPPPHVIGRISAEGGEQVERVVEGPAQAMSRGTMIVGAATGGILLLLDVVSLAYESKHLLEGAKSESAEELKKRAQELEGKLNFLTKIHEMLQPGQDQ
# UniProt Q99576: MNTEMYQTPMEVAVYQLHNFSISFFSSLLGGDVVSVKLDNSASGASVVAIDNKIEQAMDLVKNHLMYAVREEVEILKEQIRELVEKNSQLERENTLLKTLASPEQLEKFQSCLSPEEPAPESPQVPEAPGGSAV
# UniProt Q9BSF4: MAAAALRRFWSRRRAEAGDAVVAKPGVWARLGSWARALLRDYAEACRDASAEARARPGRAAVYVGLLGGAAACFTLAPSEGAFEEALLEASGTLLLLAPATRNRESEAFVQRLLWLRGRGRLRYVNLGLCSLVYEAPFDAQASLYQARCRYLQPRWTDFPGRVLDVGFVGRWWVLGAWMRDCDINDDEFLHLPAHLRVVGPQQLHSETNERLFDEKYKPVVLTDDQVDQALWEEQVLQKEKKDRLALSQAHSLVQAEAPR
# UniProt Q9BX66: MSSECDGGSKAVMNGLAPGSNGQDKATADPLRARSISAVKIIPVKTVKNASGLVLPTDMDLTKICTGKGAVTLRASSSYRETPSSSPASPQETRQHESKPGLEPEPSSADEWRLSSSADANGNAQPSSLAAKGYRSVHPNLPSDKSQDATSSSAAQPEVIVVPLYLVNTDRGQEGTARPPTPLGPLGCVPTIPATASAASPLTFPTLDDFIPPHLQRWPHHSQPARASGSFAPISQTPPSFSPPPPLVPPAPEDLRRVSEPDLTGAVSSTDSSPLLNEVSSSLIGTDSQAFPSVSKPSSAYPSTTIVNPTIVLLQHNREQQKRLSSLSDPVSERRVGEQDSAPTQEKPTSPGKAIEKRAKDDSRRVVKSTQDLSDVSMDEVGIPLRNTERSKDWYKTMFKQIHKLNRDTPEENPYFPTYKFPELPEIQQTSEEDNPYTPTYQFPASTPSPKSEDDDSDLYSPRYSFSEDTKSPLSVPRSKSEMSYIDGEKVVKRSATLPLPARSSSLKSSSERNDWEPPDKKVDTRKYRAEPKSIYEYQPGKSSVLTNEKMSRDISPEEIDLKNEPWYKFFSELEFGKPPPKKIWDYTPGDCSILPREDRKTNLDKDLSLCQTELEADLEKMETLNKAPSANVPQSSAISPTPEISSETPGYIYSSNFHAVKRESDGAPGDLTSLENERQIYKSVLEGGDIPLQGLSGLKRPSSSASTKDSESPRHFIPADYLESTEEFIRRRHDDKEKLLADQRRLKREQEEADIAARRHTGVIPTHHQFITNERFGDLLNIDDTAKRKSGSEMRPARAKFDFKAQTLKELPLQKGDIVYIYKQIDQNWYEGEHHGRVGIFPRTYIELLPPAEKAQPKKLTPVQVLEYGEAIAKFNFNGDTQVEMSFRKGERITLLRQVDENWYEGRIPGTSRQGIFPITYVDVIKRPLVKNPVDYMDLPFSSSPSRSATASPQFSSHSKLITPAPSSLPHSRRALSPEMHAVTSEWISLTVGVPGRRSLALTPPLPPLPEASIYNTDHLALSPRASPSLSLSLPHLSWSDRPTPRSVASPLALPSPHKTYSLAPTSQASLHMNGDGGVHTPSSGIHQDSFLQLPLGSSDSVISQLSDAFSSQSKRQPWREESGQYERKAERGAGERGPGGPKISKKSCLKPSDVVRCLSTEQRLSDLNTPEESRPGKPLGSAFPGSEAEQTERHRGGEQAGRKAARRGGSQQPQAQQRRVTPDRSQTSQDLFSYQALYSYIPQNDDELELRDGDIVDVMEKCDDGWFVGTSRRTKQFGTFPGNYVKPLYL
# UniProt Q9BS18, whole entry: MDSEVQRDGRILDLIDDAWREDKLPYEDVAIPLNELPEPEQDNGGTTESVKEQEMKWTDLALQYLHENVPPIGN
# UniProt Q9BU23: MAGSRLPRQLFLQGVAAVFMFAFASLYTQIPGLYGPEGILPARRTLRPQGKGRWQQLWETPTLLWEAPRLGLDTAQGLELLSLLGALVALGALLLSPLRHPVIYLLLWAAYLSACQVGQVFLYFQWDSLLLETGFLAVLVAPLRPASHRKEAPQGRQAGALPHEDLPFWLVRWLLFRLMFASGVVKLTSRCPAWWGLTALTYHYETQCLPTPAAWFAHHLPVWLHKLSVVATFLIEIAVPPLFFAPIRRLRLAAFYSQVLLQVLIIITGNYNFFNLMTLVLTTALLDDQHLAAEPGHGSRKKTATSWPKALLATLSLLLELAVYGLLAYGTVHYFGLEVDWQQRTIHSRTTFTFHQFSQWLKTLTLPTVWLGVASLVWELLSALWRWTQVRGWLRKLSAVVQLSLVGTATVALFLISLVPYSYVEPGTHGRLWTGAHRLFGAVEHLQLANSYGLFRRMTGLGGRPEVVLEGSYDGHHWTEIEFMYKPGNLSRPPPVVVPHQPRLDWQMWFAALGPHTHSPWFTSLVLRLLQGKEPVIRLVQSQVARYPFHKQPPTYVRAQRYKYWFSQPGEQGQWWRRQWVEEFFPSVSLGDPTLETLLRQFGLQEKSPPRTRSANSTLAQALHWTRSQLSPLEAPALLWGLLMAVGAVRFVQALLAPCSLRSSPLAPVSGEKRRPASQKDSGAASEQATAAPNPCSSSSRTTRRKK
# UniProt Q9BTZ2: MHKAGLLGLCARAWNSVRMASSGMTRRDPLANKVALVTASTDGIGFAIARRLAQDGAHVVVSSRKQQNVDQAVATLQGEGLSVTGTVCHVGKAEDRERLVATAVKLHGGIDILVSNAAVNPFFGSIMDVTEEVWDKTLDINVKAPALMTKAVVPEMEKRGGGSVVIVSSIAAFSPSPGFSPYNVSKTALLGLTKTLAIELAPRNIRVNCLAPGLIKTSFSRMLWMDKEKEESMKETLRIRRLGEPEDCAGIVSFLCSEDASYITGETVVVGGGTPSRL
# UniProt Q9BUB5: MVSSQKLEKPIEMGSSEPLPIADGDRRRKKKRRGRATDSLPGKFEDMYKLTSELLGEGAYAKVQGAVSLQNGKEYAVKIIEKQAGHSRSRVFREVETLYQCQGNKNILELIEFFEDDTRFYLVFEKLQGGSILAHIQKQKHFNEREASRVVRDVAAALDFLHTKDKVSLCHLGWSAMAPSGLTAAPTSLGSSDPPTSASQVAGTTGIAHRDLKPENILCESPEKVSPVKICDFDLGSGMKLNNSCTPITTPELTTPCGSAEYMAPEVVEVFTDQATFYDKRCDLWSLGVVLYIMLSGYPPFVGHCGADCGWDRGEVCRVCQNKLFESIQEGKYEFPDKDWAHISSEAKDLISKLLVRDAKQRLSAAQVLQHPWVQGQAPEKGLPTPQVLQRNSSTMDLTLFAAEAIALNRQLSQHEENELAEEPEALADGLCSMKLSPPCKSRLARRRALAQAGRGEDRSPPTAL
# UniProt Q9BPZ7, whole entry: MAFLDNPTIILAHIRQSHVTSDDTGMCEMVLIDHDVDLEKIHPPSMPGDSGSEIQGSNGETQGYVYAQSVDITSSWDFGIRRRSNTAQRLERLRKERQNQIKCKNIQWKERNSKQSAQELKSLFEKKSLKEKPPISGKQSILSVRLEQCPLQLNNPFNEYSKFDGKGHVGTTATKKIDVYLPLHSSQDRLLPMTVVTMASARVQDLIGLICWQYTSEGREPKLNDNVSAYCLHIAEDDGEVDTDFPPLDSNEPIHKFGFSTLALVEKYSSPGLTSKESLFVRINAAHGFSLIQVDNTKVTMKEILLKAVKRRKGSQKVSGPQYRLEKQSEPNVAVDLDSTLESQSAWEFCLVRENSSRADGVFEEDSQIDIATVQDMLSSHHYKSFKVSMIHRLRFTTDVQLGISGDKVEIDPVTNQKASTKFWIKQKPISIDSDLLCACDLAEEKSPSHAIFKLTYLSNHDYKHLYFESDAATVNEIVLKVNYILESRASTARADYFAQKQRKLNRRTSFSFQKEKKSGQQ
# UniProt Q9BQE9, whole entry: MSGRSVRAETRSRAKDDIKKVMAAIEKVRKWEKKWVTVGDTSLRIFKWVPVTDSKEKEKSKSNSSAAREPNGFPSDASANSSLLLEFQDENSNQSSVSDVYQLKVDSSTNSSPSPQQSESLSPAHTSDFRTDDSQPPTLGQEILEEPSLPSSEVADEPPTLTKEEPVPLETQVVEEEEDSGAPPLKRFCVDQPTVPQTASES
# UniProt Q9BSJ6: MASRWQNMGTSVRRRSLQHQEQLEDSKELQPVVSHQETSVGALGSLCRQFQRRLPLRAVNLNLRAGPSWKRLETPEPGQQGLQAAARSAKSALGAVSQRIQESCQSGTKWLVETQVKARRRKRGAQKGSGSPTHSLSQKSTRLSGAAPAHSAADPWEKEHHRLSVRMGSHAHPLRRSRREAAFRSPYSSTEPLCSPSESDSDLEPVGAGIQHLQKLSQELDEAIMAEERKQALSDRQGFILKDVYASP
# UniProt Q9BQG2: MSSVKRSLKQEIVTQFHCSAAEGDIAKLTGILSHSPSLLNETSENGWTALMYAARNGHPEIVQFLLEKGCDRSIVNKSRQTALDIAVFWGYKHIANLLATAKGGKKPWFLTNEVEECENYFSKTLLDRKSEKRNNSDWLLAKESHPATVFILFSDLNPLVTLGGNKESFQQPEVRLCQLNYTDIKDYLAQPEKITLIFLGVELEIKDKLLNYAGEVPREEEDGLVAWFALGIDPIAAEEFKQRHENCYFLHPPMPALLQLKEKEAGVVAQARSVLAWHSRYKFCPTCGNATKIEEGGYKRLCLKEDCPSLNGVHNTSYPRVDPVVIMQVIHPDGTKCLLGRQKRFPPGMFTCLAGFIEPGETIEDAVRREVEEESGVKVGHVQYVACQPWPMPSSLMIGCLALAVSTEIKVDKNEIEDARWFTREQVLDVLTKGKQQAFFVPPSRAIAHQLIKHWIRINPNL
# The list shows a part of the results. Single values of this set are uncertain.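 Many melting curves are irregular; where none melted, Tm was taken as 64 °C.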
# Compound: CCc1cnccc1C(=O)Nc1cc2c(cc1F)NC(=O)CC2
# Test: melting temperature shift (DMSO Tm minus MBE1-treated Tm) in cellular thermal proteome profiling; higher = less thermal stabilization by MBE1 (negative = stabilized by MBE1)
# Conditions: A375; MBE1 concentration: 100 nM
row,Target,melting temperature shift [°C]
1,EDEM2 (UniProt Q9BV94),-0.503
2,ELOVL1 (UniProt Q9BW60),0.818
3,SH3GL1 (UniProt Q99961),-0.39
4,FAM213A (UniProt Q9BRX8),-0.568
5,UniProt Q99973,-0.599
6,APOL2 (UniProt Q9BQE5),0.207
7,MGLL (UniProt Q99685),-0.0469
8,UniProt Q99576,-1.91
9,C19ORF52 (UniProt Q9BSF4),-0.215
10,UniProt Q9BTV5,0.415
11,UniProt Q9BX66,-0.832
12,UniProt Q9BS18,-6.16
13,EIF3C (UniProt Q99613),-0.522
14,UniProt Q9BWL3,0.492
15,LMF2 (UniProt Q9BU23),-0.845
16,DHRS4 (UniProt Q9BTZ2),-0.659
17,DDX23 (UniProt Q9BUQ8),-1.14

row,Target,melting temperature shift [°C]
1,UniProt Q99836,-0.63
2,OSBPL10 (UniProt Q9BXB5),-0.936
3,UniProt Q9BY66,-0.806
4,UniProt Q9BSQ5,-0.0672
5,SLC29A1 (UniProt Q99808),-2.16
6,PHB2 (UniProt Q99623),-2.93
7,ALG1 (UniProt Q9BT22),-1.01
8,MKNK1 (UniProt Q9BUB5),-0.366
9,ESYT1 (UniProt Q9BSJ8),-0.0188
10,MAPKAP1 (UniProt Q9BPZ7),0.273
11,CHCHD6 (UniProt Q9BRQ6),-3.03
12,BCL7B (UniProt Q9BQE9),-0.224
13,UniProt Q9BSJ6,-3.77
14,AKAP9 (UniProt Q99996),-0.0894
15,NUDT12 (UniProt Q9BQG2),0.464
16,UniProt Q9BR77,-3.82

# Some of the entries so far, bar-delimited:
row | Target | melting temperature shift [°C]
5 | SLC29A1 (UniProt Q99808) | -2.16
16 | UniProt Q9BR77 | -3.82
